# Assay results from publication PMC12703938, “Positive modulation of sigma-1 receptor: a new weapon to mitigate disease progression in amyotrophic lateral sclerosis” (Translational Neurodegeneration, 2025).
# Amino acid sequences for entries named in this document (tags omitted). Residues count along the entry.
# UniProt P20029, residues 20-655: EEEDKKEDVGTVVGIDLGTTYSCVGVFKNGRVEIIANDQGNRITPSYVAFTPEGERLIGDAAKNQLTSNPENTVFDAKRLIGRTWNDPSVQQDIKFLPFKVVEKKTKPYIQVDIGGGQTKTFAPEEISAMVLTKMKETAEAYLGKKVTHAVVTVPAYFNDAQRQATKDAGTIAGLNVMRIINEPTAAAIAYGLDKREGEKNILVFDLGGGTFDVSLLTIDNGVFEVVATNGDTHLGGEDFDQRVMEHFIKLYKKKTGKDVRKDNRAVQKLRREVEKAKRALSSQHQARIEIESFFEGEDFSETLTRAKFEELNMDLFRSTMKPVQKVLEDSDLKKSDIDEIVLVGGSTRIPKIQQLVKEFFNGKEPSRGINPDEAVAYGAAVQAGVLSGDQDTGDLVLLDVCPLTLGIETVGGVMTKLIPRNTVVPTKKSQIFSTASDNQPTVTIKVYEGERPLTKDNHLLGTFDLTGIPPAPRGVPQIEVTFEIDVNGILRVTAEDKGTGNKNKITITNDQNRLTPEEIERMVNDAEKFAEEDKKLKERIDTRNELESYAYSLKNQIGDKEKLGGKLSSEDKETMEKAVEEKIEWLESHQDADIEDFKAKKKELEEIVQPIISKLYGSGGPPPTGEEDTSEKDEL
# Results are given in words; binding and its absence hold for the method and conditions named. Binding seen in cells or lysates may run through a third protein. Some binding calls cover weakened binding; strength is not graded here. For some assays here: Tags and fused reporters may be left off the sequences shown.
# T1: Sigma-1 receptor tagged with YFP (S1R-YFP), O55242
# T1 chain: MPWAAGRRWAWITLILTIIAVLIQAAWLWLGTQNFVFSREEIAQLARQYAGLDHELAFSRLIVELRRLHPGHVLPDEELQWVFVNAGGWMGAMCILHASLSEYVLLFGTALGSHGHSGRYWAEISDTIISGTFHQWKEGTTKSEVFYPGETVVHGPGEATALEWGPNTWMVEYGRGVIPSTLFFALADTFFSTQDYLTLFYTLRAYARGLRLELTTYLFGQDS
# Tests used:
# [1] = biological target: Sigma-1 receptor tagged with YFP (S1R-YFP) (UniProt O55242); test: co-IP; S1R-KO N2a cells expressing YFP or S1R-YFP; CHAPS lysis buffer (50 mM Tris pH 7.4, 150 mM NaCl, 0.5% CHAPS); anti-GFP rabbit or mouse antibody or normal IgG on Dynabeads Protein G, overnight at 4 °C; western blot for BiP, Keap1, NRF2 and S1R
# [2] = biological target: T1, Sigma-1 receptor tagged with YFP …; test: as above; settings: remark: other sources report otherwise
binding [1],binding [2],Molecule
binds,,"Binding immunoglobulin Protein (BiP), endogenous in N2a cells (from UniProt P20029 20-655)"
,no binding,"Nuclear factor erythroid-2 related factor 2 (NRF2), endogenous in N2a cells, Q60795 1-597 (protein) MMDLELPPPGLQSQQDMDLIDILWRQDIDLGVSREVFDFSQRQKDYELEKQKKLEKERQEQLQKEQEKAFFAQFQLDEETGEFLPIQPAQHIQTDTSGSASYSQVAHIPKQDALYFEDCMQLLAETFPFVDDHESLALDIPSHAESSVFTAPHQAQSLNSSLEAAMTDLSSIEQDMEQVWQELFSIPELQCLNTENKQLADTTAVPSPEATLTEMDSNYHFYSSISSLEKEVGNCGPHFLHGFEDSFSSILSTDDASQLTSLDSNPTLNTDFGDEFYSAFIAEPSDGGSMPSSAAISQSLSELLDGTIEGCDLSLCKAFNPKHAEGTMEFNDSDSGISLNTSPSRASPEHSVESSIYGDPPPGFSDSEMEELDSAPGSVKQNGPKAQPAHSPGDTVQPLSPAQGHSAPMRESQCENTTKKEVPVSPGHQKAPFTKDKHSSRLEAHLTRDELRAKALHIPFPVEKIINLPVDDFNEMMSKEQFNEAQLALIRDIRRRGKNKVAAQNCRKRKLENIVELEQDLGHLKDEREKLLREKGENDRNLHLLKRRLSTLYLEVFSMLRDEDGKPYSPSEYSLQQTRDGNVFLVPKSKKPDTKKN"
